This experiment has as its target CXCR7-FLAG (UniProt P25106). Put plainly: affinity purification with mass spectrometry; LNCaP EnzR cells stably expressing GFP or CXCR7-FLAG lysed in NETN buffer (100 mM NaCl, 20 mM Tris-Cl pH 8.0, 1 mM EDTA, 0.5% NP-40); anti-FLAG M2 agarose overnight at 4°C; glycine elution; mass spectrometry.

Amino acid sequences for entries named in this document (tags omitted).
UniProt P25106: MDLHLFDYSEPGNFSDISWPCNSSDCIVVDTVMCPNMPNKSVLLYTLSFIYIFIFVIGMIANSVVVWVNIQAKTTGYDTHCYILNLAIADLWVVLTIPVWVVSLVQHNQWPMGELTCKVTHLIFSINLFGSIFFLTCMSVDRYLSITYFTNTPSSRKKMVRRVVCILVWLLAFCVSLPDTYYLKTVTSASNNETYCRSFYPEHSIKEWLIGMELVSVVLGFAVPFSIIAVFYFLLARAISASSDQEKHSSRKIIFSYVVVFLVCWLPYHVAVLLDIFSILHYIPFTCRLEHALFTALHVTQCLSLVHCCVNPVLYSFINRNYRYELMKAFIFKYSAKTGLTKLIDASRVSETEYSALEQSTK
UniProt P68371: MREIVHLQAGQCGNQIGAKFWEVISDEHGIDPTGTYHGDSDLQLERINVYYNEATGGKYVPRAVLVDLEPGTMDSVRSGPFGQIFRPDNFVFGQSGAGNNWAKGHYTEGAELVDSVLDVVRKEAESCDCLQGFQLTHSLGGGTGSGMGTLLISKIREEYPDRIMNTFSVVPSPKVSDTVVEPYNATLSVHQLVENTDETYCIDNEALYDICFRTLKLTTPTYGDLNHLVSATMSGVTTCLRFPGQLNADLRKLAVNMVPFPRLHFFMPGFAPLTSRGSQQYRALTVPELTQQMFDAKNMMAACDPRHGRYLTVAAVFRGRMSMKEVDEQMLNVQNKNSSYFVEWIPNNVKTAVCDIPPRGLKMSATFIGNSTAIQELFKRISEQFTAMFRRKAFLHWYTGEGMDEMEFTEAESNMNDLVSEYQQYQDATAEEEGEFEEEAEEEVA
UniProt Q9BQE3: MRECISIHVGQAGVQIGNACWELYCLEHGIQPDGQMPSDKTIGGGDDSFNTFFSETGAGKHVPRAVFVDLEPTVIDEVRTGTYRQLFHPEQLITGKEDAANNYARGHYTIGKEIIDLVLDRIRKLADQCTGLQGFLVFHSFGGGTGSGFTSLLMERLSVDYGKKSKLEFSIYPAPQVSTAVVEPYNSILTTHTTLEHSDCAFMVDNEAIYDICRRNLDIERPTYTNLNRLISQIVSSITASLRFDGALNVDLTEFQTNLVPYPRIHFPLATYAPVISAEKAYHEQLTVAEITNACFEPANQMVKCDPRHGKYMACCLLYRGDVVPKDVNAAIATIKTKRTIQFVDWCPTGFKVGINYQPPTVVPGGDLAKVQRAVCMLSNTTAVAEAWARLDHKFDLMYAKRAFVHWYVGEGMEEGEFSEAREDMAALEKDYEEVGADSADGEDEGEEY
UniProt Q00610: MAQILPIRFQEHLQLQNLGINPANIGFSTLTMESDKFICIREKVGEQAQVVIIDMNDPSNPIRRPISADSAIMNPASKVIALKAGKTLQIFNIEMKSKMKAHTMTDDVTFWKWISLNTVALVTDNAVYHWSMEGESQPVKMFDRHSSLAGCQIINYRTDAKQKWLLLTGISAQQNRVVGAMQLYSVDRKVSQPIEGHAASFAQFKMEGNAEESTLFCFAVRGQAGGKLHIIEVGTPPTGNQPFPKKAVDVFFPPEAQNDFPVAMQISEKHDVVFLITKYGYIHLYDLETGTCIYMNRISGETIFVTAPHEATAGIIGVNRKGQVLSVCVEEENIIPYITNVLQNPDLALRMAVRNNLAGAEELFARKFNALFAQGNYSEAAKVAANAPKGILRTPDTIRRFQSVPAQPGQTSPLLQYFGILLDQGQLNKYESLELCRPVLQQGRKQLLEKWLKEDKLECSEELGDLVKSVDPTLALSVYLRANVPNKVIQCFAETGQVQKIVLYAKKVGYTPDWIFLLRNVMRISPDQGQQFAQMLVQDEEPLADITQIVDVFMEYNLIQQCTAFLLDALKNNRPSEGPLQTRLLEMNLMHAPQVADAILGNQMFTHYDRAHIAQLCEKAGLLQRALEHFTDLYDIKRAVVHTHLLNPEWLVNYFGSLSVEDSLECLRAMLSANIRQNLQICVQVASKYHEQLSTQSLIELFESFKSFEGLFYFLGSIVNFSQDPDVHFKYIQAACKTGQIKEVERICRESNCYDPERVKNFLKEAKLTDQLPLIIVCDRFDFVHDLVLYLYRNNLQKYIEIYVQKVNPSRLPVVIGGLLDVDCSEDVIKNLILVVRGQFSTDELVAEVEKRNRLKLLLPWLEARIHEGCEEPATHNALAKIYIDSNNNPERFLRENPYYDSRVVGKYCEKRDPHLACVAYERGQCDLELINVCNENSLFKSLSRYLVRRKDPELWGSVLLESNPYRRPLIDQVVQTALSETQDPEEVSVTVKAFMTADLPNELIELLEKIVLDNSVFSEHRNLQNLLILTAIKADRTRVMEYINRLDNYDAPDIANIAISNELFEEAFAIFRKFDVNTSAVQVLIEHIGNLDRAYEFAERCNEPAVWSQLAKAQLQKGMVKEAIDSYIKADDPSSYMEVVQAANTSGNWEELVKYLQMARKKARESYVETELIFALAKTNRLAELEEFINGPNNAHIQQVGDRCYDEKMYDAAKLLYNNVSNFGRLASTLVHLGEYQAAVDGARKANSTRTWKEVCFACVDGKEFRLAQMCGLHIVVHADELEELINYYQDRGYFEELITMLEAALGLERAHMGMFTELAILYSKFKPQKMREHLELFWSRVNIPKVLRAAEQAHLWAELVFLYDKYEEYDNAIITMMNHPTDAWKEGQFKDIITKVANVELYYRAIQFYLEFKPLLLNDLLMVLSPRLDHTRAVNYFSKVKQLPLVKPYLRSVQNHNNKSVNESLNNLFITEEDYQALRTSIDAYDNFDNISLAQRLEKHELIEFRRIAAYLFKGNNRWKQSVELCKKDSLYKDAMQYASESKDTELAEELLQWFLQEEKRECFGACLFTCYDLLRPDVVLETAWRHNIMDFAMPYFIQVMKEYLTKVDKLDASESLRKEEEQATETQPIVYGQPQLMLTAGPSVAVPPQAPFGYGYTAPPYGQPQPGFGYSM
UniProt Q9H4A6: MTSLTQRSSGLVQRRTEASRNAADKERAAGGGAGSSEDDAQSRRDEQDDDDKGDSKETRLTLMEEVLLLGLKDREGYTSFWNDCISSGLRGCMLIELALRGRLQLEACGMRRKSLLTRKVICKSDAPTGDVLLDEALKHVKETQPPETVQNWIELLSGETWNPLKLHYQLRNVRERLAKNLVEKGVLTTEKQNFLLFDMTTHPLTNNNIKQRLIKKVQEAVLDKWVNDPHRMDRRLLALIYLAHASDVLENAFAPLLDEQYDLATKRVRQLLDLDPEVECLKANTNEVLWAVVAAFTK
UniProt Q92538: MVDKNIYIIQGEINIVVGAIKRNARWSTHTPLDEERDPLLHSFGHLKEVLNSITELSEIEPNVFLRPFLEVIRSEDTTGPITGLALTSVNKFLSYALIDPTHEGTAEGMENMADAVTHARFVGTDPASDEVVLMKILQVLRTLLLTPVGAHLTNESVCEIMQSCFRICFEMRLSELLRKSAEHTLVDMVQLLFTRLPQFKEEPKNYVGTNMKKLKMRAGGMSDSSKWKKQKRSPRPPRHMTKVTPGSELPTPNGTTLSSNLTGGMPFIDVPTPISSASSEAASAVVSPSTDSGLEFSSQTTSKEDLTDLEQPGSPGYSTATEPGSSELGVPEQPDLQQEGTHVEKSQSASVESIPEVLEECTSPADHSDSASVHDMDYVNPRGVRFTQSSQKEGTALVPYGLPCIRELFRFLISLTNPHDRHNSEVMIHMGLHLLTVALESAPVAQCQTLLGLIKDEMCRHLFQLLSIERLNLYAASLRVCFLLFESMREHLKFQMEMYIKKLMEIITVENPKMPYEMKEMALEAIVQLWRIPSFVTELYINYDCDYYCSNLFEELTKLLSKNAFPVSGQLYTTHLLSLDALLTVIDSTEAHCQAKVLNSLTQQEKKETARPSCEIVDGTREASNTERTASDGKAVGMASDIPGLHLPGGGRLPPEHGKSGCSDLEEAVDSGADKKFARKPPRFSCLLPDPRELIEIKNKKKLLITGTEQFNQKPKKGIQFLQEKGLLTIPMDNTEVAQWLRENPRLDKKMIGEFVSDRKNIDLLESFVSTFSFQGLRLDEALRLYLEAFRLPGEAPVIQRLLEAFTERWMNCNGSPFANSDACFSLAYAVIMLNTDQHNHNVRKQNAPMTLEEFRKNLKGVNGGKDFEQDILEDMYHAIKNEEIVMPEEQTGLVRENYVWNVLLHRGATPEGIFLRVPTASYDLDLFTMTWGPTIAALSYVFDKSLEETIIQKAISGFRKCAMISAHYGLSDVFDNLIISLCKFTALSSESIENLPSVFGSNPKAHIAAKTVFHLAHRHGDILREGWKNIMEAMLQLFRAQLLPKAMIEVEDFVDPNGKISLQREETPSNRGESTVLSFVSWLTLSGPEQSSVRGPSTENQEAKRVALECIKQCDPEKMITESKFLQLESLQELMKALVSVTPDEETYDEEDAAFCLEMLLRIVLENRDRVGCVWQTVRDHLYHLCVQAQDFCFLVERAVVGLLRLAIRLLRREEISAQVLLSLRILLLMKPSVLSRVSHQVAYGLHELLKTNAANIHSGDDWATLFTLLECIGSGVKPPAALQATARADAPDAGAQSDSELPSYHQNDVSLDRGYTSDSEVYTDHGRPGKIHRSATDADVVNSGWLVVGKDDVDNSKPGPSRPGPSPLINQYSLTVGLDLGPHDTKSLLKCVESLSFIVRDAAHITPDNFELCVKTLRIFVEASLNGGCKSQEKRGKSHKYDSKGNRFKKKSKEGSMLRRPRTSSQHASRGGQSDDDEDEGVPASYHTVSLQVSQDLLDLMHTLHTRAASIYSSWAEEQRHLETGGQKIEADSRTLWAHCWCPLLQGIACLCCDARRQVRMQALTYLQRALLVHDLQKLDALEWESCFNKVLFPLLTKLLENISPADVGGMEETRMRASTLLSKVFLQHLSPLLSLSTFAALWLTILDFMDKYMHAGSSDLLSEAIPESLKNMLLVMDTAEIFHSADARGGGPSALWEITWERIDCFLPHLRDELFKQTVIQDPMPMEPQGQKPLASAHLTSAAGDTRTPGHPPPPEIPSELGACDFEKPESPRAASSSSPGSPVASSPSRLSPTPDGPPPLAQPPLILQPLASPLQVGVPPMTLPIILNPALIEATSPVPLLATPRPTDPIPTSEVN
UniProt O75396: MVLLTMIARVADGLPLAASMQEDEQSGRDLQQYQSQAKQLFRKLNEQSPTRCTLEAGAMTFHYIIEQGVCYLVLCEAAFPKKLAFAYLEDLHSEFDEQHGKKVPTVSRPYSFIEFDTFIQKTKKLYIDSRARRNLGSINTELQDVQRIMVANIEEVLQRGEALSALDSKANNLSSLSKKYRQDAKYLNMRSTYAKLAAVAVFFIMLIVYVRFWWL

Results are given in words; binding and its absence hold for the method and conditions named. In cells and extracts the contact can be indirect. These calls come from enrichment with a bait or labelling near it, and not all partners need be listed.

On to TUBB4B (from UniProt P68371 1-445), for which the binding result is on record as “binds”.

On to TUBA1C (from UniProt Q9BQE3 1-449), for which the binding entry is given as “binds”. “clathrin heavy chain (CLTC) (from UniProt Q00610 1-1675)”: the binding result was “binds”. Next, GOLPH3 (from UniProt Q9H4A6 1-298): “binds”; GBF1 (from UniProt Q92538 1-1860): “binds”. Next, SEC22B (from UniProt O75396 1-215): “binds”.

B1: GPR89B (protein, UniProt P0CG08 1-455)
chain: MSFLIDSSIMITSQILFFGFGWLFFMRQLFKDYEIRQYVVQVIFSVTFAFSCTMFELIIFEILGVLNSSSRYFHWKMNLCVILLILVFMVPFYIGYFIVSNIRLLHKQRLLFSCLLWLTFMYFFWKLGDPFPILSPKHGILSIEQLISRVGVIGVTLMALLSGFGAVNCPYTYMSYFLRNVTDTDILALERRLLQTMDMIISKKKRMAMARRTMFQKGEVHNKPSGFWGMIKSVTTSASGSENLTLIQQEVDALEELSRQLFLETADLYATKERIEYSKTFKGKYFNFLGYFFSIYCVWKIFMATINIVFDRVGKTDPVTRGIEITVNYLGIQFDVKFWSQHISFILVGIIIVTSIRGLLITLTKFFYAISSSKSSNVIVLLLAQIMGMYFVSSVLLIRMSMPLEYRTIITEVLGELQFNFYHRWFDVIFLVSALSSILFLYLAHKQAPEKQMAP
Turning to B1, the binding entry was “binds”.
